# Laboratory results from PubChem BioAssay AID248 (DTP/NCI, 2004).
# The list is a part of this screen's results and no random one: it is rich in T/C values a quarter to a half above the control, in often repeated tests (any T/C) and in doses without a T/C. Other doses and runs of a compound stand elsewhere. T/C is the treated group as % of the vehicle group. Some doses have a count of surviving animals in place of a T/C: the source files T/C as zero there, which appears to mark a toxic dose or a test without result, not a measured value. Some doses without a T/C left all or most animals alive at the check, yet need not have been tolerated: the source hardly ever lists a survival T/C far under the control, and the zero likely stands for such cases as well. Counts of survivors are from the toxicity check (mostly the fifth day) where no day follows; animals may have died later. Schedules are NCI's codes, taken here to give the interval after Q, in days (D) or hours (H), and the number of doses after X. Some schedules carry Z or #; the key to these is not given. Some structures stand for samples that the source files as different forms (salt, stereo form or complex); doses refer to the form tested. Where survival is the endpoint, this PubChem deposit counts one and a half times the control or more as active, and values a quarter to a half above the control carry no call in these data; other NCI protocols may use other cut-offs. Some entries were tested several times; their values stand side by side, smallest first. Signs of the kind (2×) say how often a value occurs here.
# Test system: L1210 leukemia ip in BDF1 mice, survival T/C
# Assay: NCI In Vivo Anticancer Drug Screen. Data for tumor model L1210 Leukemia (intraperitoneal) in B6D2F1 (BDF1) mice
# Settings: T/C endpoint: mean survival time, higher T/C = longer survival; for T/C: schedule: Q04DX002 (ip)
# [1] = dose: 100.0 mg/kg/injection, schedule: Q04DX003 (ip), vehicle: saline
# [2] = dose: 200.0 mg/kg/injection, schedule: Q01DX009 (ip), vehicle: Klucel (hydroxypropylcellulose) (HPC)
# [3] = dose: 200.0 mg/kg/injection, schedule: Q04DX003 (ip), vehicle: saline
# [4] = dose: 400.0 mg/kg/injection, schedule: Q04DX003 (ip), vehicle: saline
# [5] = dose: 200.0 mg/kg/injection, schedule: Q04DX003 (ip), vehicle: Klucel (hydroxypropylcellulose) (HPC)
# [6] = dose: 80.0 mg/kg/injection, schedule: Q01DX001 (ip), vehicle: saline
# [7] = dose: 100.0 mg/kg/injection, schedule: Q01DX001 (ip), vehicle: saline
# [8] = dose: 200.0 mg/kg/injection, schedule: Q01DX001 (ip), vehicle: saline
# [9] = dose: 400.0 mg/kg/injection, schedule: Q01DX001 (ip), vehicle: saline
smiles,measurement,setting,value
Oc1ccccc1C=Nc1ccccc1O.[Cu+2],survivor count,"dose: 400.0 mg/kg/injection, schedule: Q01DX001 (ip), vehicle: other",0 of 6
CCCCCCCCCOCCOCCOCCN,survivor count,"dose: 50.0 mg/kg/injection, schedule: Q01DX009 (ip), vehicle: Klucel (hydroxypropylcellulose) (HPC)",0 of 6
same,survivor count,"dose: 100.0 mg/kg/injection, schedule: Q01DX009 (ip), vehicle: Klucel (hydroxypropylcellulose) (HPC)",0 of 6
same,survivor count,[1],3 of 6
same,survivor count,[2],0 of 6
same,survivor count,[3],0 of 6
same,survivor count,[4],0 of 6
CN(C)c1ccc(C2OC3(CCCCC3)C[N+]23CCCC3)cc1 (stereo not drawn),survivor count,"dose: 200.0 mg/kg/injection, schedule: Q04DX003 (ip), vehicle: acetone",0 of 6
same,survivor count,"dose: 400.0 mg/kg/injection, schedule: Q04DX003 (ip), vehicle: acetone",0 of 6
COC(=O)CCC(=O)Nc1cccc2cnccc12,survivor count,[3],6 of 6
OCC(O)C(O)C(O)C(O)C1SCCS1 (stereo not drawn),survivor count,[5],6 of 6
CN1CCN(C2CCCc3ccccc3C2O)CC1 (stereo not drawn),survivor count,[6],1 of 4
same,survivor count,[7],2 of 4
same,survivor count,[8],0 of 4
same,survivor count,[9],0 of 4
CCCCCCCCCc1ccc(OP(Oc2ccccc2)Oc2ccc(CCCCCCCCC)cc2)cc1,survivor count,"dose: 300.0 mg/kg/injection, schedule: Q01DX001 (ip), vehicle: saline",0 of 6
O=[N+]([O-])c1cc(COc2ccc(Cl)c(Cl)c2)ccc1Cl,T/C,"dose: 100.0 mg/kg/injection, vehicle: saline",126 % of control
C[CH2][Sb]([Cl])([CH2]C)([CH2]C)[O][Sb]([Cl])([CH2]C)([CH2]C)[CH2]C,survivor count,[7],0 of 6
same,survivor count,[8],0 of 6
same,survivor count,[9],0 of 6
CCCC[P+](CCCC)(CCCC)Cc1ccccc1,survivor count,"dose: 50.0 mg/kg/injection, schedule: Q04DX003 (ip), vehicle: Klucel (hydroxypropylcellulose) (HPC)",0 of 6
same,survivor count,[6],0 of 6
same,survivor count,[7],1 of 6
same,survivor count,"dose: 100.0 mg/kg/injection, schedule: Q04DX003 (ip), vehicle: Klucel (hydroxypropylcellulose) (HPC)",0 of 6
same,survivor count,[8],0 of 6
same,survivor count,[5],0 of 6
same,survivor count,[9],0 of 6
same,survivor count,"dose: 400.0 mg/kg/injection, schedule: Q04DX003 (ip), vehicle: Klucel (hydroxypropylcellulose) (HPC)",0 of 6
CCOC(=O)N1c2ccccc2C=CC1OCC (stereo not drawn),survivor count,[1],3 of 6
same,survivor count,[3],0 of 6
same,survivor count,[4],0 of 6
CC(=O)Nc1nnc(SC(C)=O)s1,survivor count,[2],6 of 6
NC(=O)c1ncn(C2OC(CO)C(O)C2O)c1N (stereo not drawn),survivor count,[9],2 of 4
CCCCCCP(=O)(CCCCCC)CCCCCC,survivor count,"dose: 125.0 mg/kg/injection, schedule: Q01DX Z (ip), vehicle: methylcellulose (MC)",4 of 6
same,survivor count,"dose: 150.0 mg/kg/injection, schedule: Q01DX Z (ip), vehicle: methylcellulose (MC)",1 of 6
COc1cccc(/C(=C/c2ccc([N+](=O)[O-])cc2)C(=O)O)c1,T/C,"dose: 100.0 mg/kg/injection, vehicle: Klucel (hydroxypropylcellulose) (HPC)","93, 96 (2×), 99 % of control"
same,T/C,"dose: 200.0 mg/kg/injection, vehicle: Klucel (hydroxypropylcellulose) (HPC)","86, 93, 99, 101 % of control"
same,T/C,"dose: 400.0 mg/kg/injection, vehicle: Klucel (hydroxypropylcellulose) (HPC)","99, 105, 120, 125 % of control"
